We go through 4 molecules from patent US20240360245A1 (Daiichi Sankyo, published 2024).

Sequences of proteins named here, by UniProt entry; tags and fusion partners are left off. A change or cut given only in a name is not applied to a line headed by its entry.
UniProt P01137: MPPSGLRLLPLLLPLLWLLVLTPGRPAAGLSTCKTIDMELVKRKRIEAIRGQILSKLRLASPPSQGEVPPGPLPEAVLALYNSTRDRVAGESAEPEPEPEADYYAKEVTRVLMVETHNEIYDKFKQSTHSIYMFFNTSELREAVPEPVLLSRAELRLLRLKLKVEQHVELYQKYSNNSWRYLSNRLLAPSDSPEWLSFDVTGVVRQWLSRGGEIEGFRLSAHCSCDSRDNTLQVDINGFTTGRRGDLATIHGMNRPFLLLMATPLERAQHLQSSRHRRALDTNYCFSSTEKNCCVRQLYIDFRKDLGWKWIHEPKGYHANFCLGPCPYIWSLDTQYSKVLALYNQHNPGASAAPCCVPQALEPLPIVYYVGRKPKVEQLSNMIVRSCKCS

Assay [1] has as its target human GARP co-expressed with human TGF β1 on HEK-293T cells (human) (UniProt P01137). The assay is described as follows: flow cytometry, HEK-293T cells co-transfected with TGF β1 and GARP.
Assay [2] shares this target. The experiment in a line: flow cytometry on HEK-293T cells co-transfected with human TGF beta1 and human GARP, PE-labeled anti-IgG secondary antibody.

Changes are numbered by the printed parent chain. No constants are given. Whether binding was seen depends on the method and setting. Some entries that bind do so weakly or less than the wild type.

B1: 105F antibody (antibody, human IgG1, lambda, V domains shown)
VH: EVQLLESGGGLVQPGGSLRLSCAASGFTFSDYYMSWIRQAPGKGLEWVSGVSWNGSRTHYADSVKGRFTISRDNSKNTLYLQMNSLRAEDTAVYYCARQRQLAEFDYWGQGTLVTVSS
VL: QSVLTQPPSASGTPGQRVTISCTGSSSNIGAGYVVHWYQQLPGTAPKLLIYADTNRPSGVPDRFSGSKSGTSASLAISGLRSEDEADYYCQSYDSSLRGWVFGGGTKLTVLG
B1: the binding entry in assay [1] and in assay [2] was “binds” each time.

B2: humanized anti-human GARP antibody h198D-H3L4 (antibody, human IgG1, kappa, V domains shown)
VH: EVQLVESGGGLVKPSQTLSLTCTVSGFSLTSFHVSWVRQPPGKGLEWIATISSGGGTYYNPSLKSRVTISRDTSKNQVSLKLSSVTAADTAVYYCARISGWGHYYVMDVWGQGTLVTVSS
VL: DIQMTQSPSSLSASVGDRVTITCQASEDIYSGLAWYQQKPGKSPKLLIYGAGSLQDGVPSRFSGSGSGTHYTLTISSLQPEDFATYFCQQGLKFPLTFGQGTKVEIKR
notes: Produced in Potelligent CHOK1SV cells; also called MACA-1983a
Turning to B2, the binding entry in assay [1] and in assay [2] was “binds” each time.

B3: humanized anti-human GARP antibody h151D-H1L1 (antibody, human IgG1, kappa, V domains shown)
VH: EVQLVESGGGLVQPGGSLRLSCAASGFTFSNYYMAWVRQAPGKGLEWVSSIGTVGGNTYYADSVKGRFTISRDDSKNTLYLQMNSLRAEDTAVYYCAREDYGGFPHWGQGTLVTVSS
VL: NIVMTQSPDSLAVSLGERATINCKASQNVGTNVDWYQQKPGQSPKLLIYGASNRYTGVPDRFSGSGSGTDFTLTISSLQAEDVAVYDCLQYKYNPYTFGQGTKVEIKR
notes: Produced in Potelligent CHOK1SV cells; also called MACA-1511a
As for B3, the binding result in assay [1] and in assay [2] was “binds” in each case.

B4: humanized anti-human GARP antibody h151D-H4L4 (antibody, human IgG1, kappa, V domains shown)
VH: B3 VH with S49A, A61R, N77S
VL: B3 VL with D9S, A12S, V13A, L15V, E17D, A19V, Q42K, A80P, V83F, V85T
notes: Produced in Potelligent CHOK1SV cells; also called MACA-1514a
Take B4: the binding result in assay [1] and in assay [2] was “binds” each time.
